# Assay results taken from patent publication US10775388B2, “Methods of using antibodies to determine periostin levels in a sample” (MEDIMMUNE, LLC, priority 2014, dated 2020).
# For at least one compound, name, drawing or mass did not settle the structure.
# Tested on: EPIAIRWAY™ tissue (normal and asthmatic lung epithelium)
# Test: Periostin levels in IL-13 stimulated […] tissue models (sandwich ELISA)
# Format: cell-based, human
# Conditions: pre-treated 6 hrs with 100 nM budesonide; 50 ng/mL IL-13 for 48 hours
# Procedure: Biotin/streptavidin-HRP-based sandwich ELISA assays were performed as follows. Specific details such as anti-periostin capture antibodies, samples to be tested, and anti-periostin detection antibodies are noted for specific experiments in the various examples Variations to standard ELISA protocols are well known to those of ordinary skill in the art, and can be used according to this disclosure.
# High binding ELISA plates were coated with an anti-periostin capture mAb, e.g., 4B4.B11 (2 μg/mL in PBS; 100 μL/well), and were incubated overnight at 4° C. The plates were washed three times with 200 μL/well wash buffer (PBS/0.1% TWEEN-20®). Following washing, 200 μL/well block buffer (e.g., PBS/50× dilution of reagent diluent concentrate (available from R & D Systems)/0.05% TWEEN-20® or PBS/3% nonfat dry milk/0.1% TWEEN-20®) was added to each well, and the plates were incubated for one hour at room temperature. The plates were then washed three times as noted above.
# For the standard curve, periostin standards (e.g., standards available from R & D Systems Cat #3548-F2) were serially diluted in block buffer, e.g., 2-fold dilutions from 50 ng/mL to 0.78 ng/mL. […] Finally the plates were read on a spectrophotometer at λ=450 nm. […]
compound,measurement,value
CCCC1O[C@@H]2C[C@H]3[C@@H]4CCC5=CC(=O)C=C[C@]5(C)[C@H]4[C@@H](O)C[C@]3(C)[C@]2(C(=O)CO)O1 (stereo partly shown) [budesonide],IL-13-induced increase of periostin levels,reduced
